Source: patent US20190275167A1, “GLASS FORMULATIONS AND USES THEREOF” (priority 2018, published 2019)
Some results were stated once for a whole list of compounds, not compound by compound.

Assay: Drug release from heat-molded pellets/articles in release buffer (PBS, 1% FBS in PBS or 100% FBS) at 37° C., HPLC quantification
Format: physicochemical
Conditions: pellets 1 mm×1 mm

For “Cholesterol-Triethylene Glycol-Cholesterol [Compound 14]”, the “Drug release from heat molded pellets” value was “no release”.
